In the supplement of paper PMC10849652 one finds log2 fold change data, which are given here for 33 targets.

Chains of the proteins cited; added tags and fusions are not shown. Lines headed by an entry give the natural chain unless they say otherwise; changes in a name come on top.
UniProt Q96GJ1: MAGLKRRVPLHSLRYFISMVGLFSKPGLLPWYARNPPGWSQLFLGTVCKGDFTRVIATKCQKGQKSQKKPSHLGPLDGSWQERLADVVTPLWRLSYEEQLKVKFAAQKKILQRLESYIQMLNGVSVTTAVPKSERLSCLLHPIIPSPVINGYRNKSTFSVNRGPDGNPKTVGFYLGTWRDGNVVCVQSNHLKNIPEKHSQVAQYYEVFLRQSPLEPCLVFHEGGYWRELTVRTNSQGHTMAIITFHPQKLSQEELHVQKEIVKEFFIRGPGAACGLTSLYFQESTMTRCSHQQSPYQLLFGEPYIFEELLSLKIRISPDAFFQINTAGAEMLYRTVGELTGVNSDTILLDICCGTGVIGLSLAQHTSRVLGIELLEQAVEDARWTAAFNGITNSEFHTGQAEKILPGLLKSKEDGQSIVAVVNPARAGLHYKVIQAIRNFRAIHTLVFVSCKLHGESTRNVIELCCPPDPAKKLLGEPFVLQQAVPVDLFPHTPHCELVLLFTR
UniProt Q9H2G4: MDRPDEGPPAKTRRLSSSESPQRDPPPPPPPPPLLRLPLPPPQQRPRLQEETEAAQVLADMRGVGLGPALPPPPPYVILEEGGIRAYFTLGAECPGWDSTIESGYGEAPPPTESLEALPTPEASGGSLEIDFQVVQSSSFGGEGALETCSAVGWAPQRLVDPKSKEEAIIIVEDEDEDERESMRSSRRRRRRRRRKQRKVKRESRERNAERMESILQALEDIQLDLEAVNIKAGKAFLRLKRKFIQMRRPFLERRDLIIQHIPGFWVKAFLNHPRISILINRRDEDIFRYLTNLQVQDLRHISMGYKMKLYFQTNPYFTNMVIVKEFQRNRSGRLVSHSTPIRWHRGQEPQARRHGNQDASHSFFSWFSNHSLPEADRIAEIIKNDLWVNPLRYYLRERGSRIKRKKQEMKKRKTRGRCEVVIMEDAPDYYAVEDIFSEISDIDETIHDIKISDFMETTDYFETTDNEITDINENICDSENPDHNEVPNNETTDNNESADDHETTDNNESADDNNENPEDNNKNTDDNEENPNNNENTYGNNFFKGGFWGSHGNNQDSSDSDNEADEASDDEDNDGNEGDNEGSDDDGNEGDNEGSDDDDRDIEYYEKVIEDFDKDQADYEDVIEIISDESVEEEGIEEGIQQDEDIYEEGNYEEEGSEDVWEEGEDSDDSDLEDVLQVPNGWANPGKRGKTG
UniProt Q15642: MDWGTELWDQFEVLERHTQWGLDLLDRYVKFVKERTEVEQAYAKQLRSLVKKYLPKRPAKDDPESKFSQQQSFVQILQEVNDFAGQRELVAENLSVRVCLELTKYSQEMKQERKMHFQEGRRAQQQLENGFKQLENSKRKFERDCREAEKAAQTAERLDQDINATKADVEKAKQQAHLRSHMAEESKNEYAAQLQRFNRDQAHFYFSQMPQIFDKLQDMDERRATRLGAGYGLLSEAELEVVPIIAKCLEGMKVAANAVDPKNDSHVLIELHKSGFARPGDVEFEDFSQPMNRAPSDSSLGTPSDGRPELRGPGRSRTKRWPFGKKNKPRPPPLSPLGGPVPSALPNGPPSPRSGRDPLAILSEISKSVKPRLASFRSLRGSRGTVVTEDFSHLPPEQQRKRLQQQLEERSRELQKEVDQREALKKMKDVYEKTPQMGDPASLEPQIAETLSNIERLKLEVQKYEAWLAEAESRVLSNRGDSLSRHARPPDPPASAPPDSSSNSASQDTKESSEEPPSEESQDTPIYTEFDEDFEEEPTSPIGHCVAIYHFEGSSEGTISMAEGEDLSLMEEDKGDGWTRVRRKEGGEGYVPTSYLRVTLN
UniProt O43715: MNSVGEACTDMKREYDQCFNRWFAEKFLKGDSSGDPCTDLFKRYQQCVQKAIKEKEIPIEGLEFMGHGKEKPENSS
UniProt O95900: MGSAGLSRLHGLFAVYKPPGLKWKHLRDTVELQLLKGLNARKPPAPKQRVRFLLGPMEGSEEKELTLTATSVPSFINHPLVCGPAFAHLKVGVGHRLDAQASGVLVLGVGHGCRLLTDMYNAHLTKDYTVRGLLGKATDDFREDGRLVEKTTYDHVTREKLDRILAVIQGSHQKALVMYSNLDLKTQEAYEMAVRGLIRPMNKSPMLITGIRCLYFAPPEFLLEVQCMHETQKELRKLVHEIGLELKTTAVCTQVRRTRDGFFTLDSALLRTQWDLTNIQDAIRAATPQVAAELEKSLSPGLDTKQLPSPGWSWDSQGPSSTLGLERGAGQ
UniProt Q5T7W7: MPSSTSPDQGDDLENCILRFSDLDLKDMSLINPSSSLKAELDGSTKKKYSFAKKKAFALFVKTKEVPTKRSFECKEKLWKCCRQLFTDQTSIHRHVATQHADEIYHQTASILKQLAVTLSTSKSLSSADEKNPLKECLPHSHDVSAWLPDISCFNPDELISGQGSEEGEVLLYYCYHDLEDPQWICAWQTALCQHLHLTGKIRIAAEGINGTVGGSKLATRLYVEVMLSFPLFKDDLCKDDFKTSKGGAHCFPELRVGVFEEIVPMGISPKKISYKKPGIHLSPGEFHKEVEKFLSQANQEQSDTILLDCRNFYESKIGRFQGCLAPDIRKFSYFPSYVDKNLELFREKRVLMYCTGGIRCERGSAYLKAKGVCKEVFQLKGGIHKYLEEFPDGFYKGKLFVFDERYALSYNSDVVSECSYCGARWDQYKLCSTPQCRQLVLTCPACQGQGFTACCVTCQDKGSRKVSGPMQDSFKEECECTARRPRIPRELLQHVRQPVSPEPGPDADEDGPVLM
UniProt Q7Z4L5: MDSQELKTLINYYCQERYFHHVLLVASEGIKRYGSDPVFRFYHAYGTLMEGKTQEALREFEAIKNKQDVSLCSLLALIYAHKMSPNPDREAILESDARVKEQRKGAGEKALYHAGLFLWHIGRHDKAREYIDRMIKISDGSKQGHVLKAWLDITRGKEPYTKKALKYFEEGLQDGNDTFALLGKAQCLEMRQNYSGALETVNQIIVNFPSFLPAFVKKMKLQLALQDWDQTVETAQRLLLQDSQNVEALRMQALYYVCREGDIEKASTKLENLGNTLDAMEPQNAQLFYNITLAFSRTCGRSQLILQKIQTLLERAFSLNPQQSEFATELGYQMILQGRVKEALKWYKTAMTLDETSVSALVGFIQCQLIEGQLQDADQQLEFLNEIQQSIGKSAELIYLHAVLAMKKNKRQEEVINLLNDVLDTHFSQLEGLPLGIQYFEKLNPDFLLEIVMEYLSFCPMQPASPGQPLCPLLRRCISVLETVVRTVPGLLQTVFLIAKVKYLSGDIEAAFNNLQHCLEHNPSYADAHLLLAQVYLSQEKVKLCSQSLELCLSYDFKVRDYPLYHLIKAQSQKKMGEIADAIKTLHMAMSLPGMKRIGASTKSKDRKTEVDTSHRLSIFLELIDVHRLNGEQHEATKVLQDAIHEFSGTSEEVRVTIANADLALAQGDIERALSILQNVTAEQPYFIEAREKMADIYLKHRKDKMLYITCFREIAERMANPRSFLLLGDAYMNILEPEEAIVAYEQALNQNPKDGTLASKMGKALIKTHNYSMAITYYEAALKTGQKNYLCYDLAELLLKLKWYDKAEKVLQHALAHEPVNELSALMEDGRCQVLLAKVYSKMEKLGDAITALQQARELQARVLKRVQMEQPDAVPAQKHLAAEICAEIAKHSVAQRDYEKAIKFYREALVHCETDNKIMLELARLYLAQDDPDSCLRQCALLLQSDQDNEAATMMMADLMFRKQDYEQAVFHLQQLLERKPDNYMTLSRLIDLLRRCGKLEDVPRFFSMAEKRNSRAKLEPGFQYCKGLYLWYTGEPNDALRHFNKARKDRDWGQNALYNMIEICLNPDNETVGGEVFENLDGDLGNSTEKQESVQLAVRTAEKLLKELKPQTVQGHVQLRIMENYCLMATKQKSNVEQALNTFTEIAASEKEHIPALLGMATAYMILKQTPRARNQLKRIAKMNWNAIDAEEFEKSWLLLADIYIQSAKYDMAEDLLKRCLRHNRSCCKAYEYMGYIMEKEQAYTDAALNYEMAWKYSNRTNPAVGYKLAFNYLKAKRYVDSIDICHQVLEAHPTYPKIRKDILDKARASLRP
UniProt Q96QT4: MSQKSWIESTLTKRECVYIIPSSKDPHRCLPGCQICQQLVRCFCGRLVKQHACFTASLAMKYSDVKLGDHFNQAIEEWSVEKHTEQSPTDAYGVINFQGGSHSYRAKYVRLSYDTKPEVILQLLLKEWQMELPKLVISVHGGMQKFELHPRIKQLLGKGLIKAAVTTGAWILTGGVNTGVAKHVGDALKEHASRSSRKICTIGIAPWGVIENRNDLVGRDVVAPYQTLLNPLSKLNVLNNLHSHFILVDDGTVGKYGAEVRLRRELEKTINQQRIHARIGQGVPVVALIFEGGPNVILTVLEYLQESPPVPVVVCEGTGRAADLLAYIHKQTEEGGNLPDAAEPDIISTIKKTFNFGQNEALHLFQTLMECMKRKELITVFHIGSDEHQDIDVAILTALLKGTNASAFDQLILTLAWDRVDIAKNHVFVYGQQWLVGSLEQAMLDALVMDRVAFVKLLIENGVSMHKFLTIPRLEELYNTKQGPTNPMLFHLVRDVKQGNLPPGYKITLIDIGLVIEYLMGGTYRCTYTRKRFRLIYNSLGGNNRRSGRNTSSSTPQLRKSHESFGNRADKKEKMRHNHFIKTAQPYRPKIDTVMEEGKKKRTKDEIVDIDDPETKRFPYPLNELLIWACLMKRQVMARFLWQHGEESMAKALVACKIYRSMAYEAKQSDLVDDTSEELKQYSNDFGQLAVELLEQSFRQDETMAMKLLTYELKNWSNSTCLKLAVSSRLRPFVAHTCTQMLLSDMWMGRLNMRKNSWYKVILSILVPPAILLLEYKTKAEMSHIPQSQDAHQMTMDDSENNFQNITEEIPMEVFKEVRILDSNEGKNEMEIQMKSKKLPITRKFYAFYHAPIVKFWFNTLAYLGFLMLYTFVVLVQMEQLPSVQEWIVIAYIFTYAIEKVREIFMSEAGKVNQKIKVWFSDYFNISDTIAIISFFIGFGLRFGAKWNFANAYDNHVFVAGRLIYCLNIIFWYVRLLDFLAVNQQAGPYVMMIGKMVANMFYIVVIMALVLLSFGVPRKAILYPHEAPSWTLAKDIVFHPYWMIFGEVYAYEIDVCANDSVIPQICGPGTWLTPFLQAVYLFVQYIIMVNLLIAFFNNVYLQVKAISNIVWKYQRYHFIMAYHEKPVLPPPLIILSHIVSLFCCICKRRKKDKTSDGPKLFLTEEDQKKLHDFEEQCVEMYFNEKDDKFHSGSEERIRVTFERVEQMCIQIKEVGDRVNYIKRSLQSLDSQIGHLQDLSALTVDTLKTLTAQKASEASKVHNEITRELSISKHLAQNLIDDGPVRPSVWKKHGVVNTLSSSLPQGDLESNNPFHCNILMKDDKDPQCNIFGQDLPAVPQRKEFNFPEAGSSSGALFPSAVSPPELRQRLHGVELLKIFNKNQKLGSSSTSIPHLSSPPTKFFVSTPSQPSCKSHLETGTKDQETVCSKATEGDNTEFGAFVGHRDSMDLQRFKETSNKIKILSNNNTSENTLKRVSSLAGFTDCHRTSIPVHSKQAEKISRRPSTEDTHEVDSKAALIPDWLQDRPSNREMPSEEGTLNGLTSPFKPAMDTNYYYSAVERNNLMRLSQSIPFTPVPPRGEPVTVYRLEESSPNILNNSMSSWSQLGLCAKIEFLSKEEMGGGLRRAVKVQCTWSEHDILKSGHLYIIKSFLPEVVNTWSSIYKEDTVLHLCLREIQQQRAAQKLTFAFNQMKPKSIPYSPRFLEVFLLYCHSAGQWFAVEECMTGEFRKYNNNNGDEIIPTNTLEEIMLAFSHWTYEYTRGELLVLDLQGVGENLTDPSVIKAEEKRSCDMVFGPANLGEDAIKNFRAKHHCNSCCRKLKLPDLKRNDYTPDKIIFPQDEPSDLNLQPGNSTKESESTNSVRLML
UniProt Q9UJT2: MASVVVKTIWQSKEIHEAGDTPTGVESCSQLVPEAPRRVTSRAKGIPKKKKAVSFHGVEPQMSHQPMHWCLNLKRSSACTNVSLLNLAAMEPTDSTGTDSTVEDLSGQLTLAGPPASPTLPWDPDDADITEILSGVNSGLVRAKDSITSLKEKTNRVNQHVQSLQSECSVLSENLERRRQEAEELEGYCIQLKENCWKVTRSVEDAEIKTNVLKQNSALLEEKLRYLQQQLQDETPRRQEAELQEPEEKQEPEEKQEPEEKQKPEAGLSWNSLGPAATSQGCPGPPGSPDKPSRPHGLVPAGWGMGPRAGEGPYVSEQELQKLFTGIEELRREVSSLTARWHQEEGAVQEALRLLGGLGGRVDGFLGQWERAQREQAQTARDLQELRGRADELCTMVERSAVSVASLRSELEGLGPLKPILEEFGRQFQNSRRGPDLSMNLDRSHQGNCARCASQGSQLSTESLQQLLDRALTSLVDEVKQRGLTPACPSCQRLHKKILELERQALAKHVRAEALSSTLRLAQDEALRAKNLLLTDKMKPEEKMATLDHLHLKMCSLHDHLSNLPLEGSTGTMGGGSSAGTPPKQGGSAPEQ

The other results are listed elsewhere or left out.

Compound in one experiment: C[C@H](C1=CC=C(C=C1)C(=O)NC2=C3C=CNC3=NC=C2)N
The experiment is described as follows: log2 fold change, soluble protein after heating vs DMSO (PISA); higher = thermal stabilisation; K562 lysate, 10 uM; active = over 0.2 and 3.5 SD of the protein, either way, in both replicates (recomputed). The method in brief: (§1)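 Thermal stability, expressed as log-two fold change relative to solvent controls, is given from duplicates. Crude K562 extract in PBS pH 7.4 with 1 mM MgCl2, at 1 mg/mL protein, was treated with 10 μM compound for 30 min and heated in aliquots for 3 min across 48°C-58°C. After pooling, adjustment to 0.5% NP-40 at 4°C and centrifugation at 21,000xg for 90 min, supernatant protein was measured by TMTpro 16plex LC-MS/MS with channel sums equalised.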
TRMT2B (UniProt Q96GJ1): the log2 fold change is inactive: 0.

As for TSC1 (UniProt Q92574), the log2 fold change is inactive: -0.049.

For TTC26, the log2 fold change was inactive: -0.024.

For the target TTLL12 (UniProt V9GY16), the log2 fold change is inactive: -0.169.

On to TRAF3IP2 (UniProt O43734), for which the log2 fold change is inactive: -0.107.

As to TSPYL2 (UniProt Q9H2G4), the log2 fold change is inactive: 0.039.

For the target TRIM58 (UniProt Q8NG06), the log2 fold change was inactive: -0.05.

For the target TSPYL1 (UniProt Q9H0U9), the log2 fold change was inactive: -0.179.

Consider TRRAP (UniProt Q9Y4A5), for which the log2 fold change was inactive: -0.023.

Take TRPM4 (UniProt Q8TD43): the log2 fold change was active: -0.654.

Consider TRPS1 isoform 2 (UniProt Q9UHF7), for which the log2 fold change was inactive: -0.169.

Regarding TRNT1 (UniProt Q96Q11), the log2 fold change is inactive: 0.043.

As to TRIP10 (UniProt Q15642), the log2 fold change is inactive: -0.069.

Regarding TRIAP1 (UniProt O43715), the log2 fold change is inactive: 0.284.

As to TSC22D2 (UniProt O75157), the log2 fold change is inactive: 0.02.

Turning to TRIM47 (UniProt Q96LD4), the log2 fold change was inactive: -0.176.

TRPT1 isoform 4 (UniProt Q86TN4): the log2 fold change is inactive: -0.028.

In the case of TRIP10 isoform 2 (UniProt Q15642), the log2 fold change was inactive: -0.029.

For the target TSEN15, A0A2U3TZM3, the log2 fold change is inactive: 0.159.

Take TTMP isoform 3 (UniProt Q5BVD1): the log2 fold change is active: -0.618.

For TRUB2 (UniProt O95900), the log2 fold change is inactive: -0.1.

With TRAF3 (UniProt Q13114), the log2 fold change is inactive: -0.13.

For the target TRIM65 (UniProt Q6PJ69), the log2 fold change is inactive: -0.06.

Regarding TSTD2 (UniProt Q5T7W7), the log2 fold change is inactive: 0.041.

For TTC21B (UniProt Q7Z4L5), the log2 fold change was inactive: -0.084.

Take TRPM7 (UniProt Q96QT4): the log2 fold change was inactive: -0.068.

As to TRAF7 (UniProt Q6Q0C0), the log2 fold change is inactive: -0.241.

For the target TSKS (UniProt Q9UJT2), the log2 fold change was inactive: 0.237.

In the case of TRIOBP (UniProt Q9H2D6), the log2 fold change was inactive: -0.012.

For the target TSPAN3 (UniProt O60637), the log2 fold change is active: 0.513.

As to TRIM27 (UniProt P14373), the log2 fold change was inactive: 0.02.

With TRIO (UniProt O75962), the log2 fold change is inactive: -0.219.

In the case of TRMT10B (UniProt Q6PF06), the log2 fold change is inactive: -0.117.

Compound in the next experiment: C[C@H](Nc1ncnc2nc[nH]c12)c1cc2cccc(Cl)c2c(=O)n1-c1ccccc1 [duvelisib]
Described as above. The method in brief:
as §1
On to TRMT2B (UniProt Q96GJ1), for which the log2 fold change is inactive: 0.001.

In the case of TSC1 (UniProt Q92574), the log2 fold change was inactive: -0.002.

For the target TTC26, the log2 fold change was inactive: 0.055.

For the target TSPYL2 (UniProt Q9H2G4), the log2 fold change was inactive: -0.041.

Turning to TRIM58 (UniProt Q8NG06), the log2 fold change was inactive: -0.034.

With TSPYL1 (UniProt Q9H0U9), the log2 fold change was inactive: 0.059.

Take TRRAP (UniProt Q9Y4A5): the log2 fold change is inactive: -0.011.

In the case of TRPM4 (UniProt Q8TD43), the log2 fold change is inactive: 0.042.

As for TRPS1 isoform 2 (UniProt Q9UHF7), the log2 fold change was inactive: 0.

For the target TRNT1 (UniProt Q96Q11), the log2 fold change was inactive: 0.011.

As for TRIP10 (UniProt Q15642), the log2 fold change was inactive: 0.005.

Consider TRIAP1 (UniProt O43715), for which the log2 fold change was inactive: -0.009.

Take TSC22D2 (UniProt O75157): the log2 fold change is inactive: 0.048.

On to TRIM47 (UniProt Q96LD4), for which the log2 fold change was inactive: -0.048.

As for TRPT1 isoform 4 (UniProt Q86TN4), the log2 fold change is inactive: 0.051.

Take TRIP10 isoform 2 (UniProt Q15642): the log2 fold change was inactive: -0.015.

On to TSEN15, A0A2U3TZM3, for which the log2 fold change is inactive: -0.125.

For the target TTMP isoform 3 (UniProt Q5BVD1), the log2 fold change is inactive: 0.138.

Regarding TRUB2 (UniProt O95900), the log2 fold change was inactive: -0.066.

TRAF3 (UniProt Q13114): the log2 fold change is inactive: -0.002.

On to TRIM65 (UniProt Q6PJ69), for which the log2 fold change is inactive: 0.072.

On to TSTD2 (UniProt Q5T7W7), for which the log2 fold change was inactive: -0.012.

Regarding TTC21B (UniProt Q7Z4L5), the log2 fold change was inactive: 0.023.

TRPM7 (UniProt Q96QT4): the log2 fold change was inactive: 0.046.

On to TRAF7 (UniProt Q6Q0C0), for which the log2 fold change is inactive: -0.029.

In the case of TSKS (UniProt Q9UJT2), the log2 fold change was inactive: -0.011.

Regarding TRIOBP (UniProt Q9H2D6), the log2 fold change was inactive: -0.019.

Regarding TSPAN3 (UniProt O60637), the log2 fold change is inactive: -0.058.

As to TRIO (UniProt O75962), the log2 fold change was inactive: -0.022.

Compound in the next experiment: Cc1cc(Nc2cc(CN3CCOCC3)c3nc(C)c(Cc4ccc(Cl)cc4F)n3n2)n[nH]1 [gandotinib]
The experiment is described as above. The procedure, abridged:
as §1
TRMT2B (UniProt Q96GJ1): the log2 fold change is inactive: -0.025.

As for TSC1 (UniProt Q92574), the log2 fold change was inactive: -0.065.

TTC26: the log2 fold change is inactive: -0.162.

As to TTLL12 (UniProt V9GY16), the log2 fold change was inactive: 0.188.

Take TRAF3IP2 (UniProt O43734): the log2 fold change was inactive: -0.292.

Turning to TSPYL2 (UniProt Q9H2G4), the log2 fold change is inactive: -0.282.

Consider TRIM58 (UniProt Q8NG06), for which the log2 fold change was inactive: -0.042.

Regarding TSPYL1 (UniProt Q9H0U9), the log2 fold change is inactive: 0.044.

For the target TRRAP (UniProt Q9Y4A5), the log2 fold change was inactive: -0.027.

Regarding TRPM4 (UniProt Q8TD43), the log2 fold change is inactive: 0.088.

Turning to TRPS1 isoform 2 (UniProt Q9UHF7), the log2 fold change is inactive: -0.034.

Regarding TRNT1 (UniProt Q96Q11), the log2 fold change is inactive: -0.075.

Consider TRIP10 (UniProt Q15642), for which the log2 fold change was inactive: 0.098.

With TRIAP1 (UniProt O43715), the log2 fold change was inactive: -0.044.

On to TSC22D2 (UniProt O75157), for which the log2 fold change is inactive: 0.029.

With TRIM47 (UniProt Q96LD4), the log2 fold change was inactive: -0.069.

Turning to TRPT1 isoform 4 (UniProt Q86TN4), the log2 fold change was inactive: 0.034.

As for TRIP10 isoform 2 (UniProt Q15642), the log2 fold change is inactive: 0.093.

Take TSEN15, A0A2U3TZM3: the log2 fold change was inactive: -0.23.

For TTMP isoform 3 (UniProt Q5BVD1), the log2 fold change is inactive: 0.384.

As to TRUB2 (UniProt O95900), the log2 fold change is inactive: -0.071.

In the case of TRAF3 (UniProt Q13114), the log2 fold change was inactive: 0.089.

Turning to TRIM65 (UniProt Q6PJ69), the log2 fold change is inactive: -0.102.

Turning to TSTD2 (UniProt Q5T7W7), the log2 fold change is inactive: -0.326.

TTC21B (UniProt Q7Z4L5): the log2 fold change is inactive: -0.034.

Take TRPM7 (UniProt Q96QT4): the log2 fold change is inactive: -0.009.

In the case of TRAF7 (UniProt Q6Q0C0), the log2 fold change is inactive: -0.128.

As to TSKS (UniProt Q9UJT2), the log2 fold change is inactive: -0.223.

As to TRIOBP (UniProt Q9H2D6), the log2 fold change was inactive: -0.103.

Consider TSPAN3 (UniProt O60637), for which the log2 fold change is inactive: -0.163.

On to TRIM27 (UniProt P14373), for which the log2 fold change is inactive: 0.014.

In the case of TRIO (UniProt O75962), the log2 fold change was inactive: 0.061.

Regarding TRMT10B (UniProt Q6PF06), the log2 fold change is inactive: -0.027.
